# Reference: the supplement of paper PMC10338343
# ± gives the standard deviation. The list shows a part of the results, in another mix than the full data. Many of these values have a large error.
# Test system: MIWI (PIWIL1) piRISC loaded with piRNA #2 (30 nt)
# Assay: pre-steady-state target cleavage rate (min^-1); MIWI and MILI are mouse PIWI proteins and EfPiwi is from a freshwater sponge; tags in brackets are library labels; higher = faster piRNA-guided slicing of the target
# Conditions: guide: piRNA #2 5'p-UUAGGUAACCCAGUAGAUCCAGAGGAAUUC; auxiliary factor: 500 nM mouse GTSF1
# Protocol: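 Cleave-'n-Seq: a library of target RNAs (target site embedded in constant flanks, ACAGCATTCCGCGTTAGTGATATCCG... 5' flank; DNA-blocked outside the site) at 0.1 nM was incubated with 1 nM active mouse MILI or MIWI piRISC (synthetic 5'-monophosphorylated piRNA guide) with or without 500 nM mouse GTSF1 at 33 °C for 1 min to 16 h. Uncleaved targets were sequenced and normalised to non-target controls, and the pooled three trials were fitted to a burst-and-steady-state model to give the pre-steady-state cleavage rate (min^-1; k3 is constrained to at most 1e-4). Sequence is the target site only; target names encode pairing extent (gX:gY) and contiguous / 1-mismatch / 2-mismatch / bulge geometry. Fits with R² ≤ 0 are excluded.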
row,Sequence,pre-steady-state target cleavage rate
1,CAAUUCCUCUGGUUCUACUGGGUUACCUAA,0.868 ± 0.05
2,CUUAAGCUCUGGAUCUAGACGGUUACCUAA,0.000313 ± 0.02
3,CUUAAGGAGACCUACUACUGGCUAACCUAA,0.000762 ± 0.0076
4,CUUAAGGAGACCUACUACUGGGGUACCUAA,0.000698 ± 0.0094
5,CUUAAGGAGUAGAUCUACUGGGUUACCUAA,0.00567 ± 0.0048
6,CUUAAGGAGAGGAUCUACACGGUUACCUAA,0.000532 ± 0.0093
7,GAAUUCCUCUGGAUCUACUGGUGUUACCUAA,0.0068 ± 0.0031
8,CUUUUUCCUCUGGAUCUACUGGGUUACCUAA,0.308 ± 0.046
9,CUAUACCUCUGGAUCUACUGGGUUACGUAA,0.674 ± 0.032
10,CAAUUCCUCUGGAUCUACUGGCUUAGCUAA,0.00113 ± 0.013
11,CUUAAGGAGAGGAUCUACUGGGUGUACCUAA,0.0042 ± 0.0067
12,CUUAAGGUCUGGAUGUACUGGCUUACCUAA,0.0442 ± 0.028
13,CUUAAGGAGACCAUCUACUGGGUUUACCUAA,0.00174 ± 0.0057
14,CUUAAGGAGACCAUCUACAGGCUUACCUAA,0.00254 ± 0.0033
15,CUUAAGGAGACGAUGUACUGGGUUUCCUAA,0.000696 ± 0.0074
16,CUUAAGGAGUGGAUCUACUGCGAUACCUAA,0.00391 ± 0.004
17,CUUAACCUCUCGAUCUACUGCGUUACCUAA,0.614 ± 0.057
18,CUAUUCCUCUCGAUCUACUGGGUUACGUAA,0.935 ± 0.047
19,CUAUUCCUCUGGAUCUACUGGGUUACCAUAA,0.553 ± 0.069
20,CUUUUCCUCUGGAUCUACUGGGUUACCUAA [g2:g27:cont:t1A],0.408 ± 0.057
21,CUUAAGGAGACCUUCUCCUGGGUUACCUAA,0.00234 ± 0.0064
22,CUUAAGGAGAGCAUCUAGUGGGUUACCUAA,0.00149 ± 0.0063
23,CUUAAGGAGACGAUCUACUGGCUUACCUUA,0.000844 ± 0.0086
24,CUUAAGGAGACCUAGUACCGGGUUACCUAA,0.000326 ± 0.026

# Fetched one by one from the list above:
row,Sequence,pre-steady-state target cleavage rate
21,CUUAAGGAGACCUUCUCCUGGGUUACCUAA,0.00234 ± 0.0064
15,CUUAAGGAGACGAUGUACUGGGUUUCCUAA,0.000696 ± 0.0074
17,CUUAACCUCUCGAUCUACUGCGUUACCUAA,0.614 ± 0.057
2,CUUAAGCUCUGGAUCUAGACGGUUACCUAA,0.000313 ± 0.02

# The list goes on.

row,Sequence,pre-steady-state target cleavage rate
1,CUUAAGGACUGGAUCAUCUGGGUUACCUAA,0.0065 ± 0.011
2,CUUAACCUCUGGAUCUACCUGGGUUACCUAA,0.00134 ± 0.0079
3,CUUAAGGAGACCACUCUACUGGGUUACCUAA,0.00288 ± 0.0061
4,CUUAAGGAGACCUACUACUGGGUGACCUAA,0.00085 ± 0.0096
5,CUUAAGGAGACCUACUACUGGGUAACCAAA,0.000293 ± 0.013
6,CAAUUCCUUGGAUCUACUGGGUUACCUAA,0.45 ± 0.061
7,CUUAAGGAGACGAUCCUACUGGGUUACCUAA,0.00122 ± 0.0043
8,CUUAUCCUCUGGAUCUACUCCCUUACCUAA,0.00136 ± 0.0093
9,CUUAAGGAGACGAUCAACUGGGUUACGUAA,0.000284 ± 0.023
10,CUUAAGGUCUGGAUCUAACUGGGUUACCUAA,0.000126 ± 0.033
11,CUUAAGGAGAGGAACUACUGCGUUACCUAA,0.00137 ± 0.0085
12,CUAUUCCUCUGCAUCUUCUGGGUUACCUAA,0.316 ± 0.028
13,GAAUUCCUCUGGAUCUACUGGCUAACCUAA,0.0225 ± 0.0083
14,CUUUUCCUCUGGAUCUACUGGGAAUGGAUA [g9:g27:cont:t1A],0.000846 ± 0.0099
15,CUUAAGGAGACCAUCUACUGGGUUCCCUAA,0.000744 ± 0.0088
16,CUUAAGGAGACCUUCUACCUGGGUUACCUAA,0.00186 ± 0.0054
17,CUUAAGGAGACCAUCUAGUGGGUUACGUAA,0.0012 ± 0.0075
18,CUUAAGGAGACCAUCUACUGGCUUUCCUAA,0.000664 ± 0.011
19,CUUAAGGAGACGAUCUCACUGGGUUACCUAA,0.00013 ± 0.042
20,CUUAACCUCUGGAUCUACUGGGUUCCUAA,0.00439 ± 0.0049
21,CUUAAGGAGACGAUCUACUGGGUUGACCUAA,0.00119 ± 0.0059
22,CUUAAGGACUGGAUCUACUGGGAUUCCUAA,0.00097 ± 0.015
23,CUUAAGGAGACCAUCUACUGGAUUACCUAA,0.0021 ± 0.004
24,CUUAAGGAGACCUUCUAGUGGGUUACCAAA,0.000675 ± 0.017

row,Sequence,pre-steady-state target cleavage rate
1,CUUAAGGAGAGGUACUACUGGGUUACCUAA,0.00282 ± 0.0049
2,CUUAAGGAGACCAACUUCUGGGUUACCUAA,0.00162 ± 0.0052
3,CUUAAGGAGACCUUCUACAGGGUUACCUAA,0.00192 ± 0.0054
4,CUUAAGGAGUGGAUCUACUGAGGUUACCUAA,0.000166 ± 0.032
5,CUUAAGGAGAGGAUCUACUGCGUUUCCUAA,0.00172 ± 0.0062
6,CUUAAGGAGACCUACUACUGGGUUAGCUUA,0.000192 ± 0.037
7,CUUAAGGAGACCAUCUACAGGGUUACGUAA,0.00231 ± 0.0038
8,CUAUUCCUCUGGAUCUACUGCGUUACGUAA,0.539 ± 0.08
9,GAAUUCCUCCGGAUCUACUGGGUUACCUAA,0.407 ± 0.058
10,CUUAAGCUCUGGAUCUACUUGGUUACCUAA,0.000685 ± 0.016
11,CUUAAGGAGACCUAGAUCCUGGGUUACCUAA,0.00133 ± 0.0067
12,CUUAAGGACUGGUUCUACUGGGAUACCUAA,0.012 ± 0.016
13,CUUAAGGAGACCAUGUUCUGGGUUACCUAA,0.00134 ± 0.0061
14,CUUAAGGAGACCUUCUACUCGGUUUCCUAA,0.000571 ± 0.016
15,CUUAAGGAGACCUAGUACUGGGUAACCUAA,0.000424 ± 0.0095
16,CUUAAGGAGACCUAGAUCUGGGUUACGUUA,0.00062 ± 0.013
17,CUUAAGGAGACGAUCUACUGGGUUACCUAC [g2:g19:cont:t1C],0.000989 ± 0.011
18,CAAUUCCUCUGGAUCUACUGGGAAUGGAUA [g9:g29:cont:t1A],0.000363 ± 0.018
19,CUUAAGGACUGGAUCUACUGCGUUACCAAA,0.0304 ± 0.032
20,CUUAAGGAGUGGAUGUACUGGGUUAGCUAA,0.0086 ± 0.0094
21,CUUAACCUCUGGAUCUACUCGGUUACCUUA,0.052 ± 0.011
22,CUUAAGGAGACCAUCUACUGGGUUACGUUA,0.000571 ± 0.012
